Data published in PubChem BioAssay AID493014 (National Center for Advancing Translational Sciences (NCATS), 2011).
This is one part of the list. These are further read-outs of the screen, such as a control signal, another cell line or another target. No call is given for them. Compounds called inactive in the main read-out are mostly missing here. Potencies come from curve fits of mixed quality, noted in brackets.

Experiment: qHTS Assay to Find Inhibitors of Chronic Active B-Cell Receptor Signaling
Conditions: ABC-DLBCL IkBa-CBG/CBR reporter, luminescence ratio (green luciferase fused to IkBa over red control in TMD8 lymphoma cells), 4 h
Procedure, shortened: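 Concentration-response series (up to 46 uM) were applied to TMD8 dual-reporter cells for 4 h at 37C with doxycycline. Green/red ratio, after filter-overlap correction, defined %Activity; red signal alone was normalised to basal cells and zero luminescence.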

[1] = measured here: CBR red luminescence, cell number
[2] = measured here: IkBa-CBG green luminescence

With `Cc1cc(C)cc(NC(=S)NCCN(C2CCCCC2)C2CCCC2)c1` the AC50 [1] was 17.8 µM [falling, single point].

In the case of `Cc1cccc(N=C2NC(=O)/C(=C/c3cn(C)c4ccccc34)S2)c1`, the AC50 [1] is reported as 5.17 µM [falling, full curve].

With `CC1(c2ccccc2)NC(=O)N(CC(=O)Nc2cc3c(cc2Br)OCCO3)C1=O` (stereo not drawn) the AC50 [1] was 29.1 µM [rising, single point].

In the case of `CC(=O)n1c(C=Nc2ccc(Cl)cc2)c(O)c2ccccc21`, the AC50 [1] is reported as 10 µM [falling, partial curve, poor fit].

For `CC1(C)CC(=O)C2=C(C1)c1c(ccc3ccccc13)NC2c1ccc(OCC(=O)O)cc1` (stereo not drawn), the AC50 [1] was 35.5 µM [falling, single point].

For `CC(C)OC(=O)NCCOC(=O)Nc1cccc(Cl)c1`, the AC50 [1] was 2.51 µM [rising, partial curve, poor fit].

For `O=C(Nc1ccc(Cl)c([N+](=O)[O-])c1)c1ccc2c(c1)OCCO2`, the AC50 [1] was 35.5 µM [falling, single point].

In the case of `Cc1ccc(-c2nn(-c3ccccc3)cc2CO)o1`, the AC50 [1] is reported as 16.4 µM [rising, partial curve, poor fit].

With `Cc1cc(NC2CCCCC2)nc2ccccc12` the AC50 [1] was 2.82 µM [rising, full curve, poor fit] and the AC50 [2] was 15.8 µM [falling, partial curve].

For `Cc1ccc(NC(=O)C2CCN(c3ncnc4c3nc3n4CCCCC3)CC2)nc1`, the AC50 [1] was 10 µM [falling, partial curve].

With `Cc1ccc(C)c(OCC(=O)NCC(C)(C)N2CCOCC2)c1` the AC50 [1] was 18.4 µM [rising, partial curve, poor fit].

With `CCCCN(C)C(=O)C1CCN(CCCc2ccccc2)CC1` the AC50 [1] was 1.64 µM [rising, partial curve, poor fit].

For `CCCc1ccc(OCC(=O)NNC(=S)NC(=O)c2ccco2)cc1`, the AC50 [1] was 18.4 µM [rising, single point] and the AC50 [2] was 16.4 µM [falling, partial curve, poor fit].

With `COc1ccc(-c2cc(C(=O)O)nc3ccc4ccccc4c23)cc1OC` the AC50 [1] was 14.1 µM [falling, partial curve] and the AC50 [2] was 35.5 µM [falling, single point].

For `C(=N\Nc1nc(-c2ccccc2)cs1)/c1cccnc1`, the AC50 [1] was 25.9 µM [falling, single point].

With `O=C(c1cc2nc(C3CC3)cc(C(F)F)n2n1)N1CCOCC1` the AC50 [1] was 6.51 µM [rising, single point].

With `O=C(C1CC(c2ccc(F)cc2)=NO1)N1CCCCC1` (stereo not drawn) the AC50 [1] was 18.4 µM [falling, single point].

With `COC(=O)C(NC(=O)c1cccnc1Cl)C(C)C` (stereo not drawn) the AC50 [1] was 5.62 µM [rising, partial curve, poor fit].

For `CCC(=O)N(CCN1CCOCC1)Cc1cc2cc3c(cc2nc1Cl)OCO3`, the AC50 [1] was 14.1 µM [rising, single point].

In the case of `COc1ccc(-c2ncncc2-c2ccc(OC)c(OC)c2)c(O)c1`, the AC50 [1] is reported as 35.5 µM [falling, single point].

For `COC(=O)[C@H](Cc1ccc(O)cc1)NC(=O)Cn1cnc2c(NCc3ccccc3)ncnc21`, the AC50 [1] was 5.8 µM [rising, full curve, poor fit].

For `CCOCc1nnc(NC(=O)c2cccc(OC)c2)s1`, the AC50 [1] was 35.5 µM [falling, single point].

In the case of `Cn1cnnc1SCC(=O)Nc1ccc2ccccc2c1`, the AC50 [1] is reported as 23.1 µM [rising, partial curve, poor fit].

With `COc1cccc(/C=C2\SC(=S)N(CCCC(=O)Nc3ccc(C(=O)O)cc3)C2=O)c1` the AC50 [1] was 1.58 µM [falling, full curve].

With `O=C(CSc1nnc(-c2ccc3c(c2)OCO3)o1)Nc1ncc(Cl)cc1Cl` the AC50 [1] was 16.4 µM [rising, partial curve].

For `O=C(CN1C(=O)/C(=C\c2cccc(Br)c2)Oc2ccccc21)NCCCN1CCOCC1`, the AC50 [1] was 0.1 µM [rising, full curve, poor fit].

In the case of `COC(=O)c1cnc(NNS(=O)(=O)c2ccc(Cl)cc2)nc1C(F)(F)F`, the AC50 [1] is reported as 3.55 µM [rising, single point].

With `CCOC(=O)Cc1csc(NC(=O)/C=C\c2ccccc2)n1` the AC50 [1] was 1.58 µM [falling, full curve].

For `CC1CCN(C(=O)c2ccc3c(c2)OCCO3)CC1`, the AC50 [1] was 6.51 µM [falling, single point].

In the case of `O=C(COc1ccc([N+](=O)[O-])cc1)Nc1ccc(CN2CCOCC2)cc1`, the AC50 [1] is reported as 17.8 µM [falling, single point].

With `C=CC[C@H](CC(=O)N(CCO)Cc1ccccc1)C(=O)NCCOC(=O)[C@H](CC=C)CC(=O)OC(C)(C)C` the AC50 [1] was 3.26 µM [rising, single point].

With `O=C(CCCOc1ccc(Cl)cc1Cl)N1CCCc2ccccc21` the AC50 [1] was 2.91 µM [rising, single point].

For `O=C(O)c1ccc(Nc2nc(-c3cc4ccccc4oc3=O)cs2)cc1O`, the AC50 [1] was 7.94 µM [falling, partial curve].

For `CCCc1ccc(C(=O)NNc2cc(Cl)ccc2Cl)cc1`, the AC50 [1] was 2.51 µM [falling, partial curve, poor fit].

With `CC(C)CN(C(=O)CSc1nn(-c2ccc(Cl)cc2)c(=S)s1)C1CCS(=O)(=O)C1` (stereo not drawn) the AC50 [1] was 29.1 µM [falling, single point].

For `O=C(NC1CCS(=O)(=O)C1)c1cccc(Cl)c1` (stereo not drawn), the AC50 [1] was 29.1 µM [rising, single point].

With `Cc1nc2ccc(S(=O)(=O)NCC(=O)Nc3ccc(F)cc3)cc2s1` the AC50 [1] was 35.5 µM [falling, single point].

For `O=C(NCc1ccccc1)c1c(Cl)nc(Cl)c(Cl)c1Cl`, the AC50 [1] was 3.16 µM [falling, single point].

For `CCOc1ccccc1C(=O)Nc1ccsc1C(=O)OC`, the AC50 [1] was 20.6 µM [falling, partial curve, poor fit].

In the case of `C/C(CC(=O)Nc1cccc(C(F)(F)F)c1)=N\NC(=O)c1ccncc1`, the AC50 [1] is reported as 17.8 µM [falling, partial curve, poor fit].

For `COc1ccc(CNC(=O)Cn2nc(-c3ccc4c(c3)OCCO4)ccc2=O)cc1`, the AC50 [1] was 3.98 µM [rising, partial curve, poor fit].

With `O=C(O)Cc1ccc(NC(=O)C(c2ccccc2)c2ccccc2)cc1` the AC50 [1] was 10 µM [rising, partial curve].

With `Cc1ccc(C(=O)Nn2cnc3ccccc3c2=O)cc1C` the AC50 [1] was 11.2 µM [falling, partial curve, poor fit].

With `CCCN1Cc2cccc(C(=O)Nc3ccc(-c4nc5ccccc5[nH]4)cc3)c2C1=O` the AC50 [1] was 0.651 µM [rising, full curve, poor fit].

For `Cc1cc(Br)ccc1SCC(=O)OCC(=O)N1CCN(C(=O)c2ccco2)CC1`, the AC50 [1] was 11.2 µM [falling, partial curve, poor fit].

In the case of `O=C(O)c1cccc(-n2nnnc2SCc2ccccn2)c1`, the AC50 [1] is reported as 0.82 µM [rising, full curve].

For `Cc1cccc(OCCNC(=O)CCNS(=O)(=O)c2ccc3ccccc3c2)c1`, the AC50 [1] was 3.66 µM [rising, single point].

With `CCOc1cc(Br)ccc1S(=O)(=O)N1CC(C)OC(C)C1` (stereo not drawn) the AC50 [1] was 29.1 µM [rising, single point].

With `NC(=O)C(c1ccc(Sc2ccccc2)nn1)c1ccc(Cl)cc1Cl` (stereo not drawn) the AC50 [1] was 20.6 µM [falling, single point].

For `COC(=O)c1sccc1NC(=O)Nc1cccc(C)c1C`, the AC50 [1] was 11.2 µM [falling, partial curve].

For `O=C(NCc1ccco1)c1ccccc1NS(=O)(=O)c1cccs1`, the AC50 [1] was 0.82 µM [falling, partial curve, poor fit].

In the case of `CCC(C)NS(=O)(=O)c1ccc(NC(=O)C(Sc2ccccc2)c2ccccc2)cc1` (stereo not drawn), the AC50 [1] is reported as 1.46 µM [rising, partial curve, poor fit].

With `Cc1[nH][nH]c(=O)c1N=Nc1ccc(Cl)cc1` the AC50 [1] was 0.708 µM [rising, full curve, poor fit].

In the case of `Nc1c(C(=O)CSc2nnc(Cc3ccccc3)o2)c(=O)[nH]c(=O)n1C1CC1`, the AC50 [1] is reported as 0.164 µM [rising, full curve, poor fit].

For `Cn1c(SCC(=O)Nc2nccs2)nnc1-c1ccncc1`, the AC50 [1] was 23.1 µM [falling, partial curve, poor fit].

For `COc1ccc(-n2c(Cc3cccs3)nnc2SCC(=O)Nc2ccc3c(c2)OCCO3)cc1`, the AC50 [1] was 20 µM [falling, single point].

In the case of `Cc1ccc2[nH]c(=O)c(CN(Cc3ccccc3)Cc3nnnn3C3CCCC3)cc2c1`, the AC50 [1] is reported as 9.2 µM [falling, partial curve].

For `Nc1ncnc2c1ncn2[C@H]1C[C@H](O)[C@@H](CO)O1`, the AC50 [1] was 9.2 µM [rising, partial curve].

For `CCOc1cc(/C=N/NC(N)=S)cc(Br)c1OCc1ccccc1C`, the AC50 [1] was 8.2 µM [rising, partial curve] and the AC50 [2] was 5.8 µM [falling, full curve].

For `CN(C)c1ccc(C#Cc2ccc3cc(CCO)oc(=O)c3c2)cc1`, the AC50 [1] was 0.517 µM [rising, full curve].

For `COc1ccc(CCN2C(=O)C3C4CC(C5C(C(=O)NN)=NOC45)C3C2=O)cc1OC` (stereo not drawn), the AC50 [1] was 6.51 µM [rising, single point].

In the case of `COc1cc(C(=O)Nc2ccc(C(N)=O)cc2)c([N+](=O)[O-])cc1OC`, the AC50 [1] is reported as 3.55 µM [falling, partial curve, poor fit].

For `CCc1nc(N2CCN(C(=O)c3ccccc3)CC2)c2c3c(sc2n1)CCCC3`, the AC50 [1] was 20 µM [falling, partial curve, poor fit] and the AC50 [2] was 15.8 µM [rising, single point].
